No constants are given. Whether binding was seen depends on the method and setting. In cells and extracts the contact can be indirect. Some entries that bind do so weakly or less than the wild type.
Legend:
[1] = target: T1, LZTR1, wild type, full length (transfected, Figs 1H, 3B, 3E, 3G, 4B) (UniProt Q8N653); assay: co-IP
T1 sequence: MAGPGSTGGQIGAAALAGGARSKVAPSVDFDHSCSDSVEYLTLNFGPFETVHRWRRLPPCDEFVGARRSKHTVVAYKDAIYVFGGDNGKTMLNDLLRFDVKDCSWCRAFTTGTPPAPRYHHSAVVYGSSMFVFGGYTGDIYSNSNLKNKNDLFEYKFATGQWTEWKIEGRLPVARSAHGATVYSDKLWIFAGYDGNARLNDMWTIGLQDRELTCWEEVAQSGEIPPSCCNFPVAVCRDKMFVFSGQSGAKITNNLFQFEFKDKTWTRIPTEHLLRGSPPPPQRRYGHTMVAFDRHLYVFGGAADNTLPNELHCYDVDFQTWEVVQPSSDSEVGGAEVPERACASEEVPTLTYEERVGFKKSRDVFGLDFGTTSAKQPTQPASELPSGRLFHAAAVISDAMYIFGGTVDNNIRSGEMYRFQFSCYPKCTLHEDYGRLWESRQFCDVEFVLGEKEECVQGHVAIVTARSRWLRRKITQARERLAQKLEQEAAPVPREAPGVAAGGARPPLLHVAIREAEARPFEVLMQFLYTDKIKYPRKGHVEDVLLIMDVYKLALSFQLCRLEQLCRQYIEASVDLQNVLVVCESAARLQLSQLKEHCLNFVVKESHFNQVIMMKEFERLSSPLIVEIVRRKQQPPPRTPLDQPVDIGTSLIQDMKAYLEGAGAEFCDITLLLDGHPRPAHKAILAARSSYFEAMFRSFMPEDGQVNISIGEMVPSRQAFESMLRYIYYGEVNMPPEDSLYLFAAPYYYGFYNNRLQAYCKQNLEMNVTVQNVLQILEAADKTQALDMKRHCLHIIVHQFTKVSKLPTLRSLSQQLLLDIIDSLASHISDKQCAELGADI

Sequences of proteins named here, by UniProt entry; tags and fusion partners are left off.
UniProt Q92963: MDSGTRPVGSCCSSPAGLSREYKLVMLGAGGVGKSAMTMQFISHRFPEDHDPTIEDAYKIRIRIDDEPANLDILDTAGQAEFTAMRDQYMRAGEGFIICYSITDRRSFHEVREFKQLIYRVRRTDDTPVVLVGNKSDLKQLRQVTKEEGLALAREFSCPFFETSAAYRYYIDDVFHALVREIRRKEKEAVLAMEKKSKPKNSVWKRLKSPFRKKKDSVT

KLHL9 = target: T2, KLHL9 (UniProt Q9P2J3); assay: co-IP
T2 sequence: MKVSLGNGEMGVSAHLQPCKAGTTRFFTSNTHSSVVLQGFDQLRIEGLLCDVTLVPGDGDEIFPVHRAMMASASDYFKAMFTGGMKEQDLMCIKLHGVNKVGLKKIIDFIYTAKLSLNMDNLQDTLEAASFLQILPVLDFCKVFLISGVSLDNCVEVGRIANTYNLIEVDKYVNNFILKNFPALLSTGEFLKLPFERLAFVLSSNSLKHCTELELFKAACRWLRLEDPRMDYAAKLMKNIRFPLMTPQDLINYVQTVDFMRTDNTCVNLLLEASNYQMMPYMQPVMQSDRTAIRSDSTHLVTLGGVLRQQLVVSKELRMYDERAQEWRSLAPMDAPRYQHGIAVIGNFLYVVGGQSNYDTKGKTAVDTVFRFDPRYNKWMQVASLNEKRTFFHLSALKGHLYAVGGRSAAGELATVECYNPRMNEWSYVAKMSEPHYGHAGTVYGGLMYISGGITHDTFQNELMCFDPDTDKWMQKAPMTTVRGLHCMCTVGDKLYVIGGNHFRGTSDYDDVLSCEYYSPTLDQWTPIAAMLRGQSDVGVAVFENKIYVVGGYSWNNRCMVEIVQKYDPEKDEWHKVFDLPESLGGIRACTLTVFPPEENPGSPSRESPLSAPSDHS

- binding [1]: binds
- binding (KLHL9): no binding
Substance: RIT1, wild type, full length (Figs 1H, 3B, 3G, 4B) (from UniProt Q92963 1-219)

— doi:10.1101/2020.03.14.989954
